The target of assay [1] is GST-p21S130A (human) (UniProt P38936). The experiment in a line: pull-down; GST fusion proteins and Glutathione Sepharose beads incubated with cell extracts of nocodazole synchronized HCT116 p21−/− cells; binding buffer with 10% glycerol and 0.1% NP-40 in PBS; blots for Cdk1 and cyclin B1; only the target purified.
Assay [2] deals with wild type FLAG-p21 (in HeLa cells) (human) (UniProt P38936). The experiment in a line: co-IP; extracts of transfected, nocodazole synchronized HeLa cells, immunoprecipitated with FLAG M2 beads; precipitate used for an ex vivo kinase assay with 32P-ATP without added kinase; cyclin B1 indicated in the autoradiogram.
Assay [3] deals with FLAG-p21S130A (in HeLa cells) (human) (UniProt P38936). The assay is described as above.
For assay [4], the target named is Cdk1/cyclin B1 (endogenous, mitotic HCT116 p21−/− cells) (human (endogenous in HCT116)) (UniProt P06493+P14635). The experiment in a line: co-IP; nuclear extracts of transfected, nocodazole synchronized HCT116 p21−/− cells, immunoprecipitated with cyclin B1 antibody; expression levels of FLAG-p21 and mutants adjusted to be comparable.

Amino acid sequences for entries named in this document (tags omitted). A change or cut given only in a name is not applied to a line headed by its entry.
UniProt P38936: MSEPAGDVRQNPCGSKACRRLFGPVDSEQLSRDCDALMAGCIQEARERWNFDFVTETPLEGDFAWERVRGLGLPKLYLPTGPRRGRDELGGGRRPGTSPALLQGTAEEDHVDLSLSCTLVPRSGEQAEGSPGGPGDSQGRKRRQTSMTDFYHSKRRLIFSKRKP
UniProt P06493: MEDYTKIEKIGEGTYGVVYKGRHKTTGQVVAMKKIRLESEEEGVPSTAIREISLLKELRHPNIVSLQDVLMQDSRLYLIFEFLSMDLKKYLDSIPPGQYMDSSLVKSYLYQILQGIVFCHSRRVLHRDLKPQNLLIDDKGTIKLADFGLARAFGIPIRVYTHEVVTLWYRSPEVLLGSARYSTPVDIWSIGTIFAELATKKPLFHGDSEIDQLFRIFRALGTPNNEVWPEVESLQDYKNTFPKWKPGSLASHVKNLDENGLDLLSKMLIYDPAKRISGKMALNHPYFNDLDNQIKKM
UniProt P14635: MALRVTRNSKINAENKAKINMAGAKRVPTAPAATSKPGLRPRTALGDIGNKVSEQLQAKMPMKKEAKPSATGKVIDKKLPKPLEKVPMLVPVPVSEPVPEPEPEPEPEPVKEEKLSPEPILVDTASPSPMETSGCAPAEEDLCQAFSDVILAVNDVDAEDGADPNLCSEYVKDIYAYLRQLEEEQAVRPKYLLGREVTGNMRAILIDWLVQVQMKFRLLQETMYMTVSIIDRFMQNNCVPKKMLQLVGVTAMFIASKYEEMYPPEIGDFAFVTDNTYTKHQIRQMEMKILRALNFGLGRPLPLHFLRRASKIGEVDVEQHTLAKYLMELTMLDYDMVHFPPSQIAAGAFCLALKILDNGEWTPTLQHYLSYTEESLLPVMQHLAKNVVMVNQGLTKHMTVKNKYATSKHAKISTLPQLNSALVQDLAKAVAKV

No constants are given. Whether binding was seen depends on the method and setting. Binding seen in cells or lysates may run through a third protein. Some results given as binding are weak or reduced against the parent protein; the word gives no strength.

Consider “Cdk1/cyclin B1 (endogenous, mitotic HCT116 p21−/− cells) (from UniProt P06493 1-297; P14635 1-433) (complex)”, for which the binding entry in assay [1] is listed as “binds”.

On to “Cdk1/cyclin B1 (endogenous, mitotic HeLa cells) (from UniProt P06493 1-297; P14635 1-433) (complex)”, for which the binding entry in assay [2] and in assay [3] was “binds” each time.

In the case of “FLAG-p21S130A (in HCT116 p21−/− cells) (from UniProt P38936 1-164)”, the binding result in assay [4] is given as “binds”.

With “FLAG-p21S130D (in HCT116 p21−/− cells) (from UniProt P38936 1-164)”, the binding entry in assay [4] was “binds”.

Regarding “wild type FLAG-p21 (in HCT116 p21−/− cells) (from UniProt P38936 1-164)”, the binding entry in assay [4] is “binds”.

Source of the values: article PMC5226578.
